The results in this text go back to patent US20250075147A1, “FRAGRANCE AND FLAVOR COMPOSITIONS COMPRISING NEW FLAVOR AND FRAGRANCE INGREDIENTS” (priority 2023, published 2025).

The nature of data set [1]: Evaluation by trained and/or certified flavor or fragrance chemists or master perfumers; categorization by commercial prospect. To be noted: for Rating: category of commercial prospect, (A) highest > (B) > (C) > (D) lowest, (E) requires further study; for Rating (category of commercial prospect): evaluation by trained flavor or fragrance chemists or master perfumers.
The next data set has as its system odor evaluation panel. As to the kind of experiment: Odor evaluation panel rating of odorants by Rate-All-That-Apply (RATA) method with 55-word odor lexicon, plus intensity and pleasantness. More on the design: species or system human. Particulars: for Floral: mean panelist score for odor label floral (RATA); for Fruity: mean panelist score for odor label fruity (RATA); for Spicy: mean panelist score for odor label spicy (RATA); for Sweet: mean panelist score for odor label sweet (RATA); for Pleasantness: mean panelist score for odor pleasantness.

Regarding `CCCC[N+](=O)[O-]` [Compound 307, 1-nitrobutane], the Rating entry in data set [1] is “(D)”. Besides, in the data set with odor evaluation panel, the Floral came out at 0.125, the Fruity worked out at 0.938, the Spicy was 0.219 and the Sweet is given as 1.25. Moreover, the Pleasantness with odor evaluation panel was found to be 4.856.
Take `NCCOc1ccccc1` [Compound 251, 2-phenoxyethanamine]: in data set [1], the Rating result is “(D)”. Moreover, in the data set with odor evaluation panel, the Floral came to 0, the Fruity is listed as 0, the Spicy turned out to be 0.125 and the Sweet is listed as 0.062. In addition, the Pleasantness in the data set with odor evaluation panel turned out to be 5.234.
As for `C#CCOC1CCCCO1` (centres unmarked) [Compound 76, 2-prop-2-ynoxyoxane], in data set [1], the Rating result is “(C)”. In the data set on odor evaluation panel, the Floral amounted to 0.156, the Fruity is reported as 0.75, the Spicy stood at 0.375 and the Sweet turned out to be 0.844. In addition, in the data set on odor evaluation panel, the Pleasantness is 4.531.
With `Cc1cccc(C)c1C#N` [Compound 451, 2,6-dimethylbenzonitrile], in data set [1], the Rating result is given as “(C)”. Moreover, in the data set on odor evaluation panel, the Floral amounted to 0.222, the Fruity is on record as 0.028, the Spicy amounted to 0.389 and the Sweet stood at 0.667.
As for `Cc1ccc2cccc(O)c2n1` [Compound 161, 2-methylquinolin-8-ol], the Rating entry in data set [1] is “(D)”. Also, in the data set on odor evaluation panel, the Floral worked out at 0.114, the Fruity came out at 0, the Spicy is given as 0.286 and the Sweet worked out at 0.6. Further, the Pleasantness in the data set on odor evaluation panel came out at 4.943.
`CC(C)(C)c1ccccc1O` [Compound 950, 2-tert-butylphenol]: the “Rating (category of commercial prospect)” value in data set [1] is “(C)”. Moreover, in the data set on odor evaluation panel, the Floral is 0.389, the Fruity is 0, the Spicy is reported as 0.167 and the Sweet is given as 0.278.
For the compound `CCCC1CCC(O)CC1` (centres unmarked) [Compound 757, 4-propylcyclohexan-1-ol], in data set [1], the “Rating (category of commercial prospect)” value was “(A)”. Moreover, in the data set with odor evaluation panel, the Floral was 1.457, the Fruity stood at 0.143, the Spicy was 0.371 and the Sweet is on record as 0.771. Moreover, in the data set on odor evaluation panel, the Pleasantness is 5.289.
For the compound `CCCCOCCOCCOCCCC` [Compound 834, 1-[2-(2-butoxyethoxy)ethoxy]butane], in data set [1], the “Rating (category of commercial prospect)” value is reported as “(D)”. In addition, in the data set with odor evaluation panel, the Floral worked out at 0.444, the Fruity is listed as 0.806, the Spicy was found to be 0 and the Sweet was determined as 0.556.
For the compound `Cc1cccc(C)c1[N+](=O)[O-]` [Compound 756, 1,3-dimethyl-2-nitrobenzene], the “Rating (category of commercial prospect)” value in data set [1] is on record as “(D)”. Besides, in the data set with odor evaluation panel, the Floral came out at 0.233, the Fruity is given as 0.2, the Spicy came out at 0.7 and the Sweet was 0.833. Also, the Pleasantness in the data set on odor evaluation panel amounted to 4.933.
Take `C1=C(N2CCOCC2)CCCC1` [Compound 129, 4-(cyclohexen-1-yl)morpholine]: the Rating entry in data set [1] is listed as “(D)”. In addition, in the data set on odor evaluation panel, the Floral is reported as 0, the Fruity was 0, the Spicy is reported as 0.3 and the Sweet came out at 0.333. Also, the Pleasantness with odor evaluation panel is on record as 0.897.
Consider `CSC(=C[N+](=O)[O-])SC` [Compound 868, 1,1-bis(methylsulfanyl)-2-nitroethene], for which the “Rating (category of commercial prospect)” value in data set [1] is “(D)”. In the data set on odor evaluation panel, the Floral worked out at 0, the Fruity came out at 0, the Spicy amounted to 0.056 and the Sweet came out at 0.
On to `CCC1=C(C)CNC1=O` [Compound 710, 4-ethyl-3-methyl-1,2-dihydropyrrol-5-one], for which the “Rating (category of commercial prospect)” value in data set [1] was “(D)”. Also, in the data set with odor evaluation panel, the Floral is given as 0.143, the Fruity is on record as 0.114, the Spicy is listed as 0 and the Sweet was 0.486. Moreover, the Pleasantness with odor evaluation panel is 5.183.
